Test results reported in article PMC5548745, “Agonist-induced dimer dissociation as a macromolecular step in G protein-coupled receptor signaling” (Nature Communications, 2017).

Test system: FZD6 receptor complex in living HEK293 cells
Experiment: FCS translational diffusion time of FZD6-GFP constructs
Format: cell-based, human
Conditions: C59 5 µM overnight, N = 17 (wt), 14 (dimer mutant) cells

Molecule	transit (translational diffusion) time τ D [ms]
FZD6 dimer mutant: D365A, R368A, Y369A triple mutant of FZD6 (protein, left off: GFP, C-terminal, kept) HSLFTCEPITVPRCMKMAYNMTFFPNLMGHYDQSIAAVEMEHFLPLANLECSPNIETFLCKAFVPTCIEQIHVVPPCRKLCEKVYSDCKKLIDTFGIRWPEELECDRLQYCDETVPVTFDPHTEFLGPQKKTEQVQRDIGFWCPRHLKTSGGQGYKFLGIDQCAPPCPNMYFKSDELEFAKSFIGTVSIFCLCATLFTFLTFLIDVRRFRYPERPIIYYSVCYSIVSLMYFIGFLLGDSTACNKADEKLELGDTVVLGSQNKACTVLFMLLYFFTMAGTVWWVILTITWFLAAGRKWSCEAIEQKAVWFHAVAWGTPGFLTVMLLAMNKVEGDNISGVCFVGLYDLAASAAFVLLPLCLCVFVGLSLLLAGIISLNHVRQVIQHDGRNQEKLKKFMIRIGVFSGLYLVPLVTLLGCYVYEQVNRITWEITWVSDHCRQYHIPCPYQAKAKARPELALFMIKYLMTLIVGISAVFWVGSKKTCTEWAGFFKRNRKRDPISESRRVLQESCEFFLKHNSKVKHKKKHYKPSSHKLKVISKSMGTSTGATANHGTSAVAITSHDYLGQETLTEIQTSPETSMREVKADGASTPRLREQDCGEPASPAASISRLSGEQVDGKGQAGSVSESARSEGRISPKSDITDTGLAQSNNLQVPSSSEPSSLKGSTSLLVHPVSGVRKEQGGGCHSDT	30.1 ± 2.0
FZD6-GFP: GFP-tagged human FZD6 receptor construct (protein, left off: V5 (on the crosslinked copy), N-terminal, kept | mCherry (on the crosslinked copy), C-terminal, kept | GFP (on the other, mobile copy), C-terminal, kept, GFP-tagged human FZD6 receptor construct) HSLFTCEPITVPRCMKMAYNMTFFPNLMGHYDQSIAAVEMEHFLPLANLECSPNIETFLCKAFVPTCIEQIHVVPPCRKLCEKVYSDCKKLIDTFGIRWPEELECDRLQYCDETVPVTFDPHTEFLGPQKKTEQVQRDIGFWCPRHLKTSGGQGYKFLGIDQCAPPCPNMYFKSDELEFAKSFIGTVSIFCLCATLFTFLTFLIDVRRFRYPERPIIYYSVCYSIVSLMYFIGFLLGDSTACNKADEKLELGDTVVLGSQNKACTVLFMLLYFFTMAGTVWWVILTITWFLAAGRKWSCEAIEQKAVWFHAVAWGTPGFLTVMLLAMNKVEGDNISGVCFVGLYDLDASRYFVLLPLCLCVFVGLSLLLAGIISLNHVRQVIQHDGRNQEKLKKFMIRIGVFSGLYLVPLVTLLGCYVYEQVNRITWEITWVSDHCRQYHIPCPYQAKAKARPELALFMIKYLMTLIVGISAVFWVGSKKTCTEWAGFFKRNRKRDPISESRRVLQESCEFFLKHNSKVKHKKKHYKPSSHKLKVISKSMGTSTGATANHGTSAVAITSHDYLGQETLTEIQTSPETSMREVKADGASTPRLREQDCGEPASPAASISRLSGEQVDGKGQAGSVSESARSEGRISPKSDITDTGLAQSNNLQVPSSSEPSSLKGSTSLLVHPVSGVRKEQGGGCHSDT	52.4 ± 4.1
